Experimental data: PubChem BioAssay AID1159584 (Peter MacCallum Cancer Centre, 2016)
In all, the deposit lists about 18,000 reagents; below is a part drawn at random. Not all columns of the deposit are shown. Reagent sequences are not shown. Not given: the amount of reagent, the time to read-out.

Purpose: 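Knock-downs that harm CDH1-null cells more than parental MCF10A cells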 (primary screen)
Cells: human MCF10A breast epithelial cells, parental and CDH1-null
Reagents: siRNA against human genes
Read-out: 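Cell viability by CellTiter-Glo ATP luminescence, each line scaled to the mean of mock wells across plates, then CDH1-null over parental ratio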
Direction: CDH1-null / parental viability ratio: higher = CDH1-null cells survive relatively better than parental; CDH1-null viability vs mock: higher = more viable CDH1-null cells
Units: CDH1-null viability vs mock in fraction of mock

{"gene": "JAK3", "PubChem SID": "SID56478525", "CDH1-null / parental viability ratio": 1.02, "CDH1-null viability vs mock": 0.84}
{"gene": "NBPF11", "PubChem SID": "SID135623732", "CDH1-null / parental viability ratio": 1.17, "CDH1-null viability vs mock": 1.1}
{"gene": "ZNF280C", "PubChem SID": "SID134312136", "CDH1-null / parental viability ratio": 0.99, "CDH1-null viability vs mock": 0.94}
{"gene": "MAT2B", "PubChem SID": "SID135623296", "CDH1-null / parental viability ratio": 0.91, "CDH1-null viability vs mock": 0.91}
{"gene": "XIRP2", "PubChem SID": "SID135625217", "CDH1-null / parental viability ratio": 1.03, "CDH1-null viability vs mock": 0.76}
{"gene": "RTP4", "PubChem SID": "SID135622601", "CDH1-null / parental viability ratio": 0.82, "CDH1-null viability vs mock": 0.54}
{"gene": "SPANXB1", "PubChem SID": "SID134321354", "CDH1-null / parental viability ratio": 1.26, "CDH1-null viability vs mock": 0.86}
{"gene": "SPANXB1", "PubChem SID": "SID135625670", "CDH1-null / parental viability ratio": 1.22, "CDH1-null viability vs mock": 1.01}
{"gene": "KIF5B", "PubChem SID": "SID134313716", "CDH1-null / parental viability ratio": 1.09, "CDH1-null viability vs mock": 0.84}
{"gene": "PLS1", "PubChem SID": "SID134315700", "CDH1-null / parental viability ratio": 1.21, "CDH1-null viability vs mock": 1.23}
{"gene": "B3GNT4", "PubChem SID": "SID134317666", "CDH1-null / parental viability ratio": 0.93, "CDH1-null viability vs mock": 0.84}
{"gene": "CSNK1G1", "PubChem SID": "SID152156369", "CDH1-null / parental viability ratio": 0.97, "CDH1-null viability vs mock": 0.77}
{"gene": "OPRM1", "PubChem SID": "SID152148128", "CDH1-null / parental viability ratio": 1.54, "CDH1-null viability vs mock": 1.05}
{"gene": "C14orf93", "PubChem SID": "SID134318180", "CDH1-null / parental viability ratio": 1.04, "CDH1-null viability vs mock": 1.06}
{"gene": "KRAS", "PubChem SID": "SID134310727", "CDH1-null / parental viability ratio": 1, "CDH1-null viability vs mock": 0.5}
{"gene": "PFKM", "PubChem SID": "SID56479129", "CDH1-null / parental viability ratio": 0.8, "CDH1-null viability vs mock": 0.83}
{"gene": "ZDHHC24", "PubChem SID": "SID134326605", "CDH1-null / parental viability ratio": 0.87, "CDH1-null viability vs mock": 0.66}
{"gene": "ANKLE1", "PubChem SID": "SID135623150", "CDH1-null / parental viability ratio": 0.81, "CDH1-null viability vs mock": 0.44}
{"gene": "PCDH20", "PubChem SID": "SID134317104", "CDH1-null / parental viability ratio": 0.93, "CDH1-null viability vs mock": 1.12}
{"gene": "WARS1", "PubChem SID": "SID134313201", "CDH1-null / parental viability ratio": 0.95, "CDH1-null viability vs mock": 0.92}
{"gene": "EIF4EBP1", "PubChem SID": "SID152154692", "CDH1-null / parental viability ratio": 1.18, "CDH1-null viability vs mock": 1.27}
{"gene": "RBM4B", "PubChem SID": "SID134318846", "CDH1-null / parental viability ratio": 1.21, "CDH1-null viability vs mock": 0.68}
{"gene": "TEKT4", "PubChem SID": "SID135622987", "CDH1-null / parental viability ratio": 0.72, "CDH1-null viability vs mock": 0.52}
{"gene": "BHLHE22", "PubChem SID": "SID134313886", "CDH1-null / parental viability ratio": 0.87, "CDH1-null viability vs mock": 0.84}

In a second layout: results already given
gene,PubChem SID,CDH1-null / parental viability ratio,CDH1-null viability vs mock
OPRM1,SID152148128,1.54,1.05
C14orf93,SID134318180,1.04,1.06
